According to doi:10.1101/255976:
For at least one entry, the source does not settle the construct or the ends of the probe. At least one verdict was read from the data and is not stated in words by the source.

By UniProt entry, the sequences of proteins in these tests, tags left out. Where a name states a change or a piece, a line headed by the entry shows the natural chain unless it says otherwise.
UniProt P38398: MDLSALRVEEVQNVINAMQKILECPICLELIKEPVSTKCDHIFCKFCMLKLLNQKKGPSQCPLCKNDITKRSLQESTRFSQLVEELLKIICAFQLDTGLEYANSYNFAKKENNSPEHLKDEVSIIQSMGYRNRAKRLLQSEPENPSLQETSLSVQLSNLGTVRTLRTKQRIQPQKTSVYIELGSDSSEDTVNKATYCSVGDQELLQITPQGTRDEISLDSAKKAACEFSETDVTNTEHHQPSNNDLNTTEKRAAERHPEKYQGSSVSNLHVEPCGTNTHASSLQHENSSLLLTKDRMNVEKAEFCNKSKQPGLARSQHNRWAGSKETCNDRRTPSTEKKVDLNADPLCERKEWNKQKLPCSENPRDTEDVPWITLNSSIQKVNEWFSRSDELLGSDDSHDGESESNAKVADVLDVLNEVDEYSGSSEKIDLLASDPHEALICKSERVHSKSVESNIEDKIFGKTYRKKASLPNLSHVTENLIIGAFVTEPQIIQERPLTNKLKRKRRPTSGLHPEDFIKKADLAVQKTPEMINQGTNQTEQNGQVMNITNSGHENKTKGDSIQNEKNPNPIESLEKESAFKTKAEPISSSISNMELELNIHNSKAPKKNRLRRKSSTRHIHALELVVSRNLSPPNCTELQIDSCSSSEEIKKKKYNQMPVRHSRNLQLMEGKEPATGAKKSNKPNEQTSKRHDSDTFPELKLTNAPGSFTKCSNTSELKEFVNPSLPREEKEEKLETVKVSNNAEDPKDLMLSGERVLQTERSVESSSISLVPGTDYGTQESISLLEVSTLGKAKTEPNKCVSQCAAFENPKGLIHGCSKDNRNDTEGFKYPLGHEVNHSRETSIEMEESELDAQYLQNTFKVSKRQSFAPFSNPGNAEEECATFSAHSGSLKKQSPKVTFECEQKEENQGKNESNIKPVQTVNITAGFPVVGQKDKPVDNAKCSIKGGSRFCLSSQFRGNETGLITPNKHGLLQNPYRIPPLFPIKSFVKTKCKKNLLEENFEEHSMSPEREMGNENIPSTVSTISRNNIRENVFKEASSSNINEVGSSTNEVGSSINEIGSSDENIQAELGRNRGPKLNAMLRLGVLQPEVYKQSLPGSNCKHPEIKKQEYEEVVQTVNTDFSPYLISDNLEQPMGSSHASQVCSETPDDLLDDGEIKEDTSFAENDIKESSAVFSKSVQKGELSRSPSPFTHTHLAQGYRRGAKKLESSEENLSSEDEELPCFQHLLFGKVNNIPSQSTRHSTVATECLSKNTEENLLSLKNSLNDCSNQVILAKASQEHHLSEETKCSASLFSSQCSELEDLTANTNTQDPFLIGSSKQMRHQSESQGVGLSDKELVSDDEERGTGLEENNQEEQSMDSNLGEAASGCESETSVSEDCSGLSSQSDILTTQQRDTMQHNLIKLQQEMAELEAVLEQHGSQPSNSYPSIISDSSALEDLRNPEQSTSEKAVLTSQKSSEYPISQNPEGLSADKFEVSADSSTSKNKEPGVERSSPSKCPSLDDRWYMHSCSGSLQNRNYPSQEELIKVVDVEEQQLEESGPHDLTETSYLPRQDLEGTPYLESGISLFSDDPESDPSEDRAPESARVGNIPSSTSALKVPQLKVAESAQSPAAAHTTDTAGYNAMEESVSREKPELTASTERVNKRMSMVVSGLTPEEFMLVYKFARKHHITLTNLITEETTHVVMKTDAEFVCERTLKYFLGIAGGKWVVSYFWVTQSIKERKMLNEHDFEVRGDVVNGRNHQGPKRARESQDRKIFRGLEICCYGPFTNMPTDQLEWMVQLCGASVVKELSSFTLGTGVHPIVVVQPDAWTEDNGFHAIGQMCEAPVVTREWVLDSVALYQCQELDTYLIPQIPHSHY

Experiments:
BRCA1 (human) = BRCA1 (human) (UniProt P38398); assay: EMSA; details: 1 mM EDTA, no added divalent metal
BRCA1 + BARD1 = assay: EMSA; details: 1 mM EDTA, no added divalent metal

## GACGTCATAGACGATTACATTGCTAGGACATGCTGTCTAGAGACTATCGC (double strand) [50 bp dsDNA X12-3/X12-4C]
BRCA1 (human)
  binding result: binds
BRCA1 + BARD1
  binding result: binds
